Patent publication US20080044436A1, “Method for Screening and Compositions for Treating Cancers” (priority 2004, published 2008)
Results are given in words; binding and its absence hold for the method and conditions named. Some binding calls cover weakened binding; strength is not graded here.

Protein sequences, listed by entry. Tags and fused reporters are not part of them. Residues count along the entry.
UniProt P06401, residues 675-933: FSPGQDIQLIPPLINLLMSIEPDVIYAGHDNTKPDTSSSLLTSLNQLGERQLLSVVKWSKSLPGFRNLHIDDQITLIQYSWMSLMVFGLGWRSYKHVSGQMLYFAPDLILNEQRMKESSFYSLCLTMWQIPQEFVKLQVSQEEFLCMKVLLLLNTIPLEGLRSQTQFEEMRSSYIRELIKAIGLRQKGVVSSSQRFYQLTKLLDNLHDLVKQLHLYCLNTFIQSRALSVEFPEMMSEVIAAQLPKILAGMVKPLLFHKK

Molecular target: GST-LBD PR fusion protein (UniProt P06401)
Test: FRET, RPE-streptavidin on biotinylated NR-box peptide and APC anti-GST on GST-LBD PR

Binder | binding
AVMDGAPDSALRQLLQKPMEPPAPA (labelled with biotin (position not given)) | binds
FEAKGDVMVALEMLLLRKPVRLKCH (labelled with biotin (position not given)) | binds
